The chains behind the UniProt entries cited, without tags or fusion partners.
UniProt C4LTA0: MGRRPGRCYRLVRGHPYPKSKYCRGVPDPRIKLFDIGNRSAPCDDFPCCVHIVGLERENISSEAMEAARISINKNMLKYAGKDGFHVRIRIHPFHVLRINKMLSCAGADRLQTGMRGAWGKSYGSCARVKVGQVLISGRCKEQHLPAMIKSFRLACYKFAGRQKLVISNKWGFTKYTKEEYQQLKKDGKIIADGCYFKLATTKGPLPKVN
UniProt B1N2I7: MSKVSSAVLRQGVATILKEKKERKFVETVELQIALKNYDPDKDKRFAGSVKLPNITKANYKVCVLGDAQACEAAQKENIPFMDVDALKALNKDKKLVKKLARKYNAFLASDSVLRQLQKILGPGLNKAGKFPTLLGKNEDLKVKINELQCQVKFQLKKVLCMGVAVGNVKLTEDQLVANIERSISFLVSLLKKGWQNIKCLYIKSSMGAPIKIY

In article PMC11592518:

T1: Myc-tagged EhDUF2419 (Entamoeba histolytica) (UniProt C4LXA2)
T1 sequence: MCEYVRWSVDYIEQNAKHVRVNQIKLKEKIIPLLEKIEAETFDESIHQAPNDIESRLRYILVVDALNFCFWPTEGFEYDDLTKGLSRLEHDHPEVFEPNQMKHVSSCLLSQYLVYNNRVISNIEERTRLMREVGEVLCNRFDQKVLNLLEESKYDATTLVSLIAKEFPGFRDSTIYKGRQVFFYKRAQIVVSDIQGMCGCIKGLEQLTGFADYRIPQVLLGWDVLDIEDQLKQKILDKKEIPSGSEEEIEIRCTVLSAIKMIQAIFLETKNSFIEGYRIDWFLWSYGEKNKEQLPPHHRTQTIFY


biological target: T1, Myc-tagged EhDUF2419 (Entamoeba histolytica); experiment: affinity purification with mass spectrometry; anti-c-Myc agarose beads with whole-cell lysate (1 to 2 mg/mL) of MycEhDUF2419-overexpressing trophozoites (24 ug/mL G418), 2 h at 4 °C, six low-stringency washes (0.1% Tween 20, 0.1% NP-40); LC-MS/MS after in-gel trypsin digestion; three replicates compared with empty vector trophozoites (fold change > 2, p < 0.05)

Row | Molecule | binding
1 | 60S ribosomal protein L10 (from UniProt C4LTA0 1-210) | binds
2 | 60S ribosomal protein L10a-2 (from UniProt B1N2I7 1-214) | binds
3 | RNA 3′-terminal phosphate cyclase (enzyme, UniProt C4M8E8 1-357) MAIELKGAKAFRYRIVLSTLLGQTIRITSIREQDSNPGIRDYEVDFLKLVSEVTSGAQIDIGKDGTSILYKPGIVNGGNFQHTCNNGRSLGYYVVPLLLILPFGKGSTTITLNGITNGNDDLSIDLIRSTTIPLIQKFGIEEDMLNVKVIKRGAPPVGDGEVVINSSIIKQLNPINLTEQGLVRSIRGVAYSTKTSPQMSNRMGEASKGILSQYLQDVYITTDHWKGKEAGTSPGYGVILTASTTNGNIISTELFGEAGNVPEDIGQKVACGLLREIETGGCIDSMHQPWLFILMTLCSEDVSKLRCGDLTAQAVECLRTIKALTGVTFQAQWDEKTKTSLLSCIGIGFCNLSRKIH | binds
4 | helicase [EHI_053600] (enzyme, UniProt C4M8P6 1-1192) MSRRKQQMAKALERQRLEKIQRLQQNQSTPSSQPKIEITKPKIEPKVAIQQKKEKKEQKIIEKKEIEKQQSDSQNIQRLKVLYDSLINEFGLTSELIKKGMVGATLENSDDITVDMVIEWLCLNIPSRLLPNSLGGTFNKVKSEKQEIKQEIKKEISKTQEIQEKQKEQEIEEEEDLDALLDRKAFKEAMDSTTKKKKKTPEEMRAEGLKRKAEIARLREEAEKRKKEEAQEEEEENELNFNFDGEIKEEENERWNIISAAEDTKWTGKFPSVIICDYCRRQKYDNPKYKDEKCKEGYLMSASVQLNDKSKTVLYARIPEENTAFLEKATAKNYIALRLLFEMKVQRNFINNFSPRYQEVFDNWTNNSPEEITKNSIILLVSQTPKGEKKKEKEIEEQSINKFTSETQAKDKFSNDYYFDEMNKEINSSHYQNMLENRKQLPIYSNKDHFINLLNNNQIVVVSGTTGSGKSTQLPQFVLENELLNKRGSQTKIYVTQPRRISAVGLSSRVIDERGSNKFVGHQIRFEKTGDEKLVYCTVGVMLRKVLGNPDLEGISHLFIDEVHERDINTDFLLLLIKKLITRNKTIKIIIMSATLAVELFEQYFGSASCLRIESKIHPIQTFYLDDIISFTNYSIDSTSEYYNYKYDDFQKKLIGDQLITVDMNKVNNKLNKTTSDMINQSTVNYELIMDLLHYLITNKPIGCILIFLPGIYEITTLQKEIISTPPFNNLNKFKIHILHSSVPLQQQKEAFSIAPNGLWKIVLSTNIAETSITIPDAKYLIDTGLVRIMSYDRSTKMQRLILTKISKANAQQRTGRVGRVSSGECYKMYSQKRESSFETYPQPEIKRLPLESLCLQILLFGEKNPVQFLADALDAPSQTQIEKSLLQLVTIKAAKRISHLDISGAVKEFEYSATPLGSALAALPVEVSIGKMLLLGCAFGIAQEATLLAACMAVQPLINGENGSNIKRRYCSDASDHIATMKIVEHYIESERKGNGTQFCKNNNINIILMKEILDTRKQFIELLKNYNYPIQSIQSSYKKELLLFILTYVFYPNIIIPQQIIGKTSIEYEYYTKKHQVFMGISSINSMPRIDFKDNVFIYTNMVKSNKIMVWECSLIKKVFIALIATTIAVNYKQKTITLDGWITINSTPLFIARLIQMRKELKEALDDVINQKTQLTKEFMSHLIETKLN | binds
5 | RNA cytidine acetyltransferase (enzyme, UniProt C4M438 1-978) MSKKRVDPRLKTLIENGVKLGERTFIMIVGSKGVEQVMNIYYMYTKAANVAKDSVLWCYKKDLAFSSNQKKRLKHKMHNKGEAENAFELFLSTTEIKYVYYKESHKVLGNTFGMLVLQDFEAMTPNILCRTVETVRGGGLVVVLLTGMTSIKQLYNLNMDIHNRYRGEDTKEITSRFNERFVLSLSDNKNSIVVSDELDVVPVFEHTLRIDPVEKKVEIKEELENLRCAYEEVQYLNEIVKITTTADQAKCVVSLFDSLKEKTLNTTISITAGRGRGKSAALGLTIACSVALGYSNIFVTAPSPENVKTVFEFAVKGLEIFGMKEHLDFDVVQTTKSEYGKAVVRVNIHQNHRQTIQYILPNDTAQLSQAELLVIDEAAAIPLPLVKGLLGNYNVMLSTTTNGYEGTGRSLSLKLIKELREGISKYSNGRLFKECTLTEPIRYSSNDQVEKWLNKLLCLDASNTLMHITSTPSPDECELYYVNRDTLFSYNRDAEKFLQQLQGLFVTSHYKNTPNDMQLLADAPNHMIFILTGPVQNGEELPDILAAVQLSLEGGIARKRVSESWFRGKKETGDLIPWTLTQQFLDDEFAGLMGARVVRICTHPDVTNMGYGSKILQMLELYFTGCIVSLGEMEEEPKANNDQKEMETDEVEVRKELEPLLINPGNRKAEMLDYLGVAFGYTPQLSKFWTCSGYQPTYLRLTANDITGEHSCIMVKQLSKNMGNWEEQYTQDFKKRFSLLLGFEFKSMNAVDAFKLVQCKNKDSSVSLNFDQRAIKRLEYYSKNLIDYHIVLDLLPCIAQAVSNGLDIQLTITQQIIFVGMGLQFKSVDEIGSELKLASAQVMALFNKAIRKVVTFLEEKKEGTNAKQSMEEEVKATEEIKENDDISEEKEEEKQSEIDPSIIRQRKLKLKELGIDDPDMFKINNTTHEIKEIDTLKGRIPTTLSIQRKEKVDKLQVKYPQKPKSGKPKKHFKKMAKK | binds
6 | RING-type E3 ubiquitin transferase (enzyme, UniProt C4MAN3 1-575) MSREDCVICTDRIIVYSIGECNHPNVCYSCCFRSRVLYNDFTCPLCRHKNPIVIYTKKPMLFKELTKSSPAFQFKEYGVQTNDRDVYKYLKYLLSNTCRYCTSEFSTIEKLNEHYKKIHHVQFCSVCMQYQKSFTCDKQVFTDEELHDHIKEIDPETGVKKHPYCDFCNIPFFDLESLYNHLNTQHESCFICDKSSDHPIYFRDYDELFKHMSTQHYVCEDPNCIAKKYIAFSTAEELTNHRIIYHMKKGEKVILESGVFFTDTPQRGTRYGRRRNNFIPSQFEYHREDTTKIKEEKEEEEHLDLTGSSFPRLGGNTTTNHSEVYQGQITTGRRNQSQKKKRKENKELFPSIGENNNKAKSDMKEAYKQQEKQEIAMKVDLQQKMKDILGGRYDKFVQENEMFKRGDETAAMLLDRFHKYFAGNPDEKEMLAEFINSWPNTKQRNILIQVDNQRNEELAKMKMRDEMFMSAQHWEEEQQKRIKSRVNTQIIPESERKKIIEEDKTKLKRKKKQEKELFPSLGEGRNLPISPKPSSKTWSQIARSTSLEAQKAKKERMDLEKARLDDSKFPKLGSK | binds

Further lines, results first:

Row | binding | Molecule
7 | binds | pseudouridine synthase and archaeosine transglycosylase domain RNA-binding motif-containing protein (protein, UniProt C4M3W8 1-179) MFRKFTREDFGPLKQVKASQTKHIKQSISTQYPGLPIDELFPKNIPLFTANSKIDHSTAILSNNKVYFFQQKENFIPTLQLAMTYPEMMKQVQVDKGAIKHVLSGSNIMAPGLTSAGGKLPDDIVAGNYVLIMGEGVQSPLAIGLMKASAVDIKKQNSGVVIDLIQYAGDGIWTDCLEH
8 | binds | rRNA adenine N(6)-methyltransferase (enzyme, UniProt C4LXN0 1-295) MAEPVGTNIFQFHKSEGQHILKNPMIAQQIVDAAELRRTDVVLEIGPGTGNLTMKMLPFCKKLIAIEIDPRMAAELKKRVSVTDYVKKLEIIQGDFLKVELPYFDVCVSNTPYSISSPLVFKLLNHRPQFRSAVLMFQREFAMRLVAKPGDPLYCRLSVNTQLLADVFHVMKVGRNNFKPPPKVESSVVRMIPVKPAPPLNLVEFDGFLRICFLRKHKTLSSLFRISSVLEVMEKNLRIIAKIRNIPIDENLDVKADVLQILEESGRAKSRAAQLTLDDFLELIYAFMKKNYHFC
9 | binds | WD domain containing protein (protein, UniProt C4LYM0 1-327) MAQRGATIKSIVLKGHEKPITKIELTREGDYFVSCSNDKTAMLWRVDPLVSMGAYSCAGAVSSCSISNNGLYLYLASRDGSLYCFELETGKQVYNKLPIPGCYAPIKSVELSPNNENILAVIGAFRTFASSVNLIDPEMKTKPISVLSQEMPQLTKAKWLSNSTFIVGDELGNLNMKDIRTQNNGLRFESHKGEITDIQSDANDILLGTTGKDGKAFVHDIRMPQEVISTFESGYPLQSIGFAPYTDYYAVGGGQDKAMITMTQRDMTMLMTTFVSAVDGQEMVRLPGHFGTVNTIVFSHDGKTIFTGADDGCIRISPLTNPVFASN
10 | binds | eukaryotic translation initiation factor eIF-5 (protein, UniProt C4M5Q8 1-349) MSEKVRMLNVPRRKTDEFYRYKMPDLIHKIEGKGNGIKTVIVNCEDIANALDRPASYLCRYFGISLAAATNTDSGKYIINGKHEYKDLMNVLDKFIDKFVLCKKCENPETVMIVKNKTLTLHCKACGEATVVPKNEKLLKFIFVHPPKHEKEEEEDDEQTNEGVVETKENPFDKRTVKITLKLKNGEKEELDIVGKDFDLKKIIDEGHPGNRLNALIGGYKHCYNLSTKTLIREMFEIIFDANMFDNFAEQIDFFDLFLGDELNPQGMISFLEEFNVACAKYKLYNDPRLLNILLYLYNNGYVIKSAMKEWYDGGAVQMSPMKQKAKEFIEWLNDQEEEEEEEEEEDDE
11 | binds | ubiquitin carboxyl-terminal hydrolase family protein (enzyme, UniProt C4M4Z7 1-806) MLSWKPSYPPCPDLTSSIETIPTAKSFITQLDEHLMNNNGIVLFEKIVNFIFSQPTLGYMAIPHYIRFNEKTPIPLINFVRYIIQYAPFDELPDCILPCIVSTALELIKRHEPKDTLDDQDNLLYELYKILIQAVVVDKKVISLINQTLHIIINQLISIHPLQFRELRNTVYQLISYLPNKDELMNQITNQLITQYHQQFIEALFAKPDNLRKYCGMENCGATCYINSVIQQLHNNESFKESILQSNCSGSCFILKTLFERMEQSKNWIVTRDVIENILGPSNKIDVSVQDDAYLFLTNLLDILNEDNKALINSCVNEFKVITKTTLKCTECQKVRERNEINTSISVDSVNNESLDQALSNLIKEEEMNDIDCLFCNKKTKQIKQISYELSESLIIGINRNKTIEGGRIYKFNKRFDFPLKMKWNDKEMILNGIVLHSGTTEMGHYTSIIKDNNGKWWKCNDKVVVEYNEKRILEDGYGTVSNSLSASILFYKTKEPNQIQNTNKEQVQNNNECNSMNIIVHDKQLYEWTEKQIIDSSSQWKSQECIDLLTLILYKGEYSFFKDIHSLITTIENKSISIIQELVSKQNELPTIITDCIVGTTTLKHALICIELFDKSSENNTWIATKLVELIPKYTTSHQHNLLSKLFVKCEEWFGLGEATPYEMTILHLLVHSSSLSEESYQLLLILCNYFQQWLIQNDIPFIQDVLSLITTTSQLNDIKKYKDSLKKLIKNTGTFLNLLPLLKSLIQRLITEKDTEKQTILKDLIVTTQCSIKSENSRTEVMDYYMTLLSKYSILQGCFETFIN

Results are given in words; binding and its absence hold for the method and conditions named. Binding seen in cells or lysates may run through a third protein. A yes stands for co-enrichment or nearness to the bait. Other partners may have been found. Sequences can lack the tags named with a protein.
